{"source": "PubChem BioAssay AID602196 (INSERM, 2012)", "assay": "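Modifiers of cisplatin sensitivity in A549 cells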", "cells": "human A549 lung cancer cells", "reagent": "siRNA pair against human genes", "duration": "48 h transfection before cisplatin; time from cisplatin to read-out not stated", "challenge": "cisplatin at a dose killing half of control-siRNA cells; exact dose and duration not given", "read-out": "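Shift in cisplatin death relative to control siRNA, from -50 (all cells die) to +50 (no cells die); siRNAs harmful on their own scored 0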", "direction": "two-siRNA summed score (-2 to +2): higher = both siRNAs protect from cisplatin killing; -2 means both sensitise", "active means": "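Each siRNA scores 0 if harmful alone by LDH or WST-1, otherwise +1 if it reduces and -1 if it increases cisplatin killing; a gene is active when both siRNAs agree (sum +2 or -2)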", "calls": "active = both siRNAs shift cisplatin killing the same way; inactive = no consistent shift, or siRNA harmful alone", "note": "Shown is one part, drawn at random, of about 23,000 reagents tested. 455 of all reagents (2%) count as active. 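Active includes both protection and sensitisation; some change values fall well beyond the stated -50 to +50 range.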 Not all columns of the deposit are shown. Not given: the amount of reagent."}
{"gene knocked down": "LOC442646", "two-siRNA summed score (-2 to +2)": 0, "activity call": "inactive"}
{"gene knocked down": "MAP7D2", "two-siRNA summed score (-2 to +2)": 1, "activity call": "inactive"}
{"gene knocked down": "SPDYE1", "two-siRNA summed score (-2 to +2)": 0, "activity call": "inactive"}
{"gene knocked down": "SELE", "two-siRNA summed score (-2 to +2)": 0, "activity call": "inactive"}
{"gene knocked down": "CCDC71L", "two-siRNA summed score (-2 to +2)": 0, "activity call": "inactive"}
{"gene knocked down": "LOC390158", "two-siRNA summed score (-2 to +2)": 0, "activity call": "inactive"}
{"gene knocked down": "LOC441146", "two-siRNA summed score (-2 to +2)": 0, "activity call": "inactive"}
{"gene knocked down": "FGF3", "two-siRNA summed score (-2 to +2)": 0, "activity call": "inactive"}
{"gene knocked down": "DGCR6", "two-siRNA summed score (-2 to +2)": 0, "activity call": "inactive"}
{"gene knocked down": "STX3", "two-siRNA summed score (-2 to +2)": 0, "activity call": "inactive"}
{"gene knocked down": "SLC25A30", "two-siRNA summed score (-2 to +2)": -1, "activity call": "inactive"}
{"gene knocked down": "LOC441047", "two-siRNA summed score (-2 to +2)": 0, "activity call": "inactive"}
{"gene knocked down": "CYSRT1", "two-siRNA summed score (-2 to +2)": 0, "activity call": "inactive"}
{"gene knocked down": "TARP", "two-siRNA summed score (-2 to +2)": 2, "activity call": "active"}
{"gene knocked down": "CCDC9B", "two-siRNA summed score (-2 to +2)": 0, "activity call": "inactive"}
{"gene knocked down": "LOC389228", "two-siRNA summed score (-2 to +2)": 0, "activity call": "inactive"}
{"gene knocked down": "LOC441509", "two-siRNA summed score (-2 to +2)": 0, "activity call": "inactive"}
{"gene knocked down": "RCAN1", "two-siRNA summed score (-2 to +2)": 1, "activity call": "inactive"}
{"gene knocked down": "LOC442226", "two-siRNA summed score (-2 to +2)": 0, "activity call": "inactive"}
{"gene knocked down": "LOC342892", "two-siRNA summed score (-2 to +2)": 0, "activity call": "inactive"}
{"gene knocked down": "LOC402577", "two-siRNA summed score (-2 to +2)": 0, "activity call": "inactive"}
{"gene knocked down": "ZC3H7A", "two-siRNA summed score (-2 to +2)": 0, "activity call": "inactive"}
{"gene knocked down": "ZNF324", "two-siRNA summed score (-2 to +2)": 0, "activity call": "inactive"}
{"gene knocked down": "PHTF2", "two-siRNA summed score (-2 to +2)": 1, "activity call": "inactive"}
{"gene knocked down": "XCR1", "two-siRNA summed score (-2 to +2)": 0, "activity call": "inactive"}
{"gene knocked down": "LOC391428", "two-siRNA summed score (-2 to +2)": 0, "activity call": "inactive"}
{"gene knocked down": "NUMA1", "two-siRNA summed score (-2 to +2)": -1, "activity call": "inactive"}
{"gene knocked down": "LOC441868", "two-siRNA summed score (-2 to +2)": 0, "activity call": "inactive"}
{"gene knocked down": "PLEKHM1", "two-siRNA summed score (-2 to +2)": 0, "activity call": "inactive"}
{"gene knocked down": "TMEM163", "two-siRNA summed score (-2 to +2)": 0, "activity call": "inactive"}
{"gene knocked down": "RIPPLY2", "two-siRNA summed score (-2 to +2)": 0, "activity call": "inactive"}

Sorted by “two-siRNA summed score (-2 to +2)” (ascending): some entries from above.
{"gene knocked down": "SELE", "two-siRNA summed score (-2 to +2)": 0, "activity call": "inactive"}
{"gene knocked down": "CCDC71L", "two-siRNA summed score (-2 to +2)": 0, "activity call": "inactive"}
{"gene knocked down": "LOC390158", "two-siRNA summed score (-2 to +2)": 0, "activity call": "inactive"}
{"gene knocked down": "LOC441146", "two-siRNA summed score (-2 to +2)": 0, "activity call": "inactive"}
